# Primary screen of a compound library

The values are deposited in ChEMBL (CHEMBL3988442, “University of Dundee, Small-Polar-MMV Screening Library” (2021)).

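Assay of Toxoplasma gondii numbers, read through their beta-galactosidase reporter with a colour substrate. Tested at 50 µM. The record gives no direction; the compounds picked for IC50 retests had high values, so higher reads as fewer parasites. Size under these conditions: about 18,000 compounds, about 170 of them at 50% or above in at least one test.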

Values are the deposited “Percent Effect”, in %.
The record does not define 0% and 100%; most values in the screen are far below 50% and negative numbers occur (in some assays of this library far below -100).
This is an unselected part of the compounds tested.

- CC(C)c1ccccc1OCC(O)CN(C)CCO (configuration not stated) : 15.15%
- COc1cc(F)ccc1C(C)=O : -2.402%
- O=S1(=O)CCC(NC2CC2)C1 (configuration not stated) : 4.838%
- CCN1CCN(C(=O)N(CC)CC)CC1 : -9.672%
- NCCc1n[nH]c(=O)n1-c1ccc2c(c1)OCO2 : -0.07643%
- CCC(=O)N1CCN(C(=O)C2CCCCN2CC)CC1 (configuration not stated) : -8.45%
- Cc1ccccc1CSCC(=O)N[C@@H]1CCNC[C@H]1O : -0.1234%
- CC(C)N(CCOc1cccc(F)c1)CC(N)=O : -7.046%
- Cn1ncc(NC(=O)CCn2cc(Br)cn2)c1C(N)=O : -12.32%
- O=C(NCCSCc1cccc(Cl)c1)C1CNCCO1 (configuration not stated) : 4.575%
- O=C1CN(C(=O)Nc2cc(Cl)ccc2F)CCN1 : -3.541%
- C=C(Br)CNC(=O)NCC(C)(O)c1ccsc1 (configuration not stated) : -11.36%
- CC(CN1CCOCC1)OC(=O)c1cccn1C(C)C (configuration not stated) : 1.431%
- CCCN1CCC(NC2CCC3(CC2)OCCO3)CC1 : 6.535%
- CC(C)Nc1cc(Cl)ccc1OCCS(C)(=O)=O : -10.72%
- Cc1noc(CN2Cc3ccccc3CC2C(N)=O)n1 (configuration not stated) : 10.34%
- Cc1c(C#N)c(SCCS(C)(=O)=O)nc2c1CCC2 : -1.702%
- CC(=O)Nc1cccc(CN(C)S(=O)(=O)C(C)C)c1 : -6.097%
- CSCc1noc(CN(C)Cc2cc(C)on2)n1 : -9.252%
- Cc1csc(NC(=O)CN2CCn3ccnc3C2)n1 : 1.32%
- CCOC(=O)c1ccc(CN2CCOCC2)cn1 : -9.42%
- CN(CC(=O)N1CCOCC1)Cc1cc(Br)cs1 : 6.245%
- Cc1nc(CC(=O)NCC(C)n2ccnc2)cs1 (configuration not stated) : -0.4936%
- CCC(CNC(=O)CN(C)CC(N)=O)c1ccccc1 (configuration not stated) : 2.559%
- NC(=O)C1COCCN1C(=O)c1cccc2c1CCC2 (configuration not stated) : -11.21%
- CCN(CC(C)C#N)C(=O)c1sccc1C (configuration not stated) : 16.85%
- CCNC(=O)CC1CCCCN1 (configuration not stated) : 8.451%
- CCOC(=O)c1ccc(N2CCC(CCO)CC2)nc1 : -5.695%
- CCN(C)C(=O)Nc1ccc(C(=O)OC)c(F)c1 : -8.802%
- COCc1ccc(C(=O)Nc2cccn(C)c2=O)cc1 : 20.11%
- Cn1ccc(Cn2cc(C(F)(F)F)ccc2=O)cc1=O : 18.17%
- O=C(CN1CCN(c2ccccc2)CC1)N1CCCC1 : 25.03%
- CSCCC(=O)N(C)Cc1cccc(-n2cccn2)c1 : 20.12%
- CC(=O)NCCCN1CCC(CNc2ccccn2)C1 (configuration not stated) : -4.559%
- CCC(CC)(CO)NCCn1cc(Br)cn1 : 1.409%
- NCCNC(=O)c1nc(Cn2cc(I)cn2)no1 : 15.81%
- CCC(=O)NCCCN1CCc2ccccc2C1 : 0.3404%
- Cc1cccc2[nH]cc(CO)c12 : -2.179%
- CCN(C)CCNS(=O)(=O)c1ccc(C(C)=O)cc1 : -11.05%
- O[C@@H]1CNC[C@H](O)C1 : 34.96%
- CCN(C)S(=O)(=O)NCC(N)(CC)CC : 2.258%
- Cc1ccc(NC(=O)N2CCN(C)C(CO)C2)c(Cl)c1 (configuration not stated) : 25.52%
- CCNC(=O)C(C)NC(=O)NCc1ccccc1OC (configuration not stated) : 17.02%
- c1ccc2[nH]c(N3CCCNCC3)nc2c1 : -6.329%
- CN(Cc1ncnn1C)C(=O)Cc1ccc(O)cc1Cl : 10.09%
- COC(=O)CCNC(=O)c1nc(SC)n2ccccc12 : 14.91%
- Nc1nc(NCCc2cn[nH]c2)cc(C2CC(N)C2)n1 (configuration not stated) : 13.35%
- Cc1[nH]cnc1CN1CCCN(S(C)(=O)=O)CC1 : -0.768%
- Cn1cnnc1CCNC(=O)c1cc(F)ccc1F : -4.645%
- Fc1ccc2[nH]cnc2c1 : 2.056%
- O=C(CCc1cc(Cl)no1)N1CCOC(C(F)(F)F)C1 (configuration not stated) : -3.908%
- CCC(N)C(=O)N1CCOCC1 (configuration not stated) : -1.226%
- O=C(Nc1ccncc1F)N1CCOCC1C1CC1 (configuration not stated) : -3.825%
- CN(CCNc1ccc2cc[nH]c2n1)S(C)(=O)=O : 16.16%
- O=C1CC(OC(=O)c2cccc(F)c2)CN1 (configuration not stated) : -13.77%
- c1noc(C2CCNCC2)n1 : -14.34%

7 of the entries, repeated:

{"structure": "Cc1cccc2[nH]cc(CO)c12", "effect": -2.179}
{"structure": "CCC(=O)NCCCN1CCc2ccccc2C1", "effect": 0.3404}
{"structure": "CCC(=O)N1CCN(C(=O)C2CCCCN2CC)CC1", "stereo": "configuration not stated", "effect": -8.45}
{"structure": "CN(CCNc1ccc2cc[nH]c2n1)S(C)(=O)=O", "effect": 16.16}
{"structure": "CC(=O)NCCCN1CCC(CNc2ccccn2)C1", "stereo": "configuration not stated", "effect": -4.559}
{"structure": "CCC(N)C(=O)N1CCOCC1", "stereo": "configuration not stated", "effect": -1.226}
{"structure": "O=C(Nc1ccncc1F)N1CCOCC1C1CC1", "stereo": "configuration not stated", "effect": -3.825}